Data reported in the supplement of paper PMC6143611.
Where a name gives a salt, the structure may show the parent alone. ± gives the uncertainty stated by the source. The list shows a part of the results. Part of the spread comes from offsets between plates or batches.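 Larvae carried a heat-shock-induced fluorescent stripe in rod outer segments, set at 6 dpf; the shedding distance runs from this stripe to the outer segment tip, measured in confocal stacks, about three fish per compound. The controls got 0.2% DMSO vehicle, and the paper flagged compounds with at least a 20% change against the same-week control and p < 0.001 (Dunnett test on mixed-effects models).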

System: Danio rerio larva rod photoreceptor outer segment
Assay: rod outer segment shedding distance Ds, difference from same-week DMSO control mean; higher = less outer segment shedding
Conditions: 20 µM; treatment time: 4 days (6-10 dpf)

| SMILES | rod outer segment shedding distance Ds |
| --- | --- |
| C[C@H]1C[C@H]2[C@@H]3CCC4=CC(=O)C=C[C@]4(C)[C@H]3C(=O)C[C@]2(C)[C@@]1(O)C(=O)CO [Meprednisone] | 0.1 ± 0.19 um |
| CC(C(=O)O)c1ccc(C(=O)c2cccs2)cc1 (centres undefined) [Suprofen] | -0.33 ± 0.15 um |
| Cc1ccc(-c2c(-c3nn(C)c4ncnc(N5CC[C@H](N6CCCCC6)C5)c34)cnn2C)cc1 | -0.34 ± 0.12 um |
| COc1cc2c(cc1Cc1cccc(Cl)c1F)c(=O)c(C(=O)O)cn2[C@H](CO)C(C)C [Elvitegravir (GS-9137, JTK-303)] | 0.23 ± 0.25 um |
| NC(=O)c1ncn([C@@H]2O[C@H](CO)[C@@H](O)[C@H]2O)n1 [Ribavirin] | -0.37 ± 0.27 um |
| CCCCC(=O)N(Cc1ccc(-c2ccccc2-c2nnn[nH]2)cc1)[C@H](C(=O)O)C(C)C [Valsartan] | -0.17 ± 0.28 um |
| O=[N+]([O-])c1cn2c(n1)OC[C@@H](OCc1ccc(OC(F)(F)F)cc1)C2 | 0.22 ± 0.26 um |
| Cc1cccc(-c2nn3c(c2-c2ccnc4ccc(C(N)=O)cc24)CCC3)n1 | -0.13 ± 0.28 um |
| CCN(CC)CC(=O)Nc1c(C)cccc1C [Lidocaine] | -0.04 ± 0.19 um |
| N[C@@]1(C(=O)O)CS(=O)(=O)[C@H]2[C@H](C(=O)O)[C@H]21 | -0.27 ± 0.13 um |
| COc1nc(C)nc(Cl)c1NC1=NCCN1 [Moxonidine] | -0.31 ± 0.24 um |
| CCOC(=O)[C@H](CCc1ccccc1)N[C@@H](C)C(=O)N1[C@H](C(=O)O)C[C@@H]2CCC[C@@H]21 [Ramipril] | -0.26 ± 0.13 um |
| CS(=O)(=O)CCNCc1ccc(-c2ccc3ncnc(Nc4ccc(OCc5cccc(F)c5)c(Cl)c4)c3c2)o1 | 0.41 ± 0.24 um |
| CCCOc1ccc(C(=O)OCCN(CC)CC)cc1N [Proparacaine HCl] | -0.54 ± 0.33 um |
| O=C(Nc1cccc(Cl)c1)c1ccccn1 | -0.49 ± 0.11 um |
| CO[C@H]1C[C@@H]2CC[C@@H](C)[C@@](O)(O2)C(=O)C(=O)N2CCCC[C@H]2C(=O)O[C@H]([C@H](C)C[C@@H]2CC[C@@H](OP(C)(C)=O)[C@H](OC)C2)CC(=O)[C@H](C)/C=C(\C)[C@@H](O)[C@@H](OC)C(=O)[C@H](C)C[C@H](C)/C=C/C=C/C=C/1C [Ridaforolimus (Deforolimus, MK-8669)] | -0.89 ± 0.24 um |
| Cc1cc(C(C)(C)C)c(O)c(C)c1CC1=NCCN1 [Oxymetazoline HCl] | 0.42 ± 0.29 um |

| SMILES | rod outer segment shedding distance Ds |
| --- | --- |
| COCCOc1ccc2c(c1)ncn2-c1ccc2cccc(N3CCC(N)CC3)c2n1 | -0.6 ± 0.17 um |
| Nc1ccc(O)c(C(=O)O)c1 [Mesalamine] | 0.41 ± 0.17 um |
| CNC(=O)c1cccc(-c2ccc3c(N4CCOC[C@@H]4C)nc(N4CCOC[C@@H]4C)nc3n2)c1 | 0.12 ± 0.13 um |
| O=c1c(-c2ccc(O)cc2)coc2cc(O)ccc12 [Daidzein] | -1.12 ± 0.26 um |
| O=C(O)/C=C/c1ccc(O)c(O)c1 [Caffeic Acid] | -0.12 ± 0.4 um |
| CCCC(CCC)C(=O)O [Divalproex Sodium] | -0.23 ± 0.15 um |
| COc1ccc(S(=O)(=O)Nc2cccnc2Nc2ccc(O)cc2)cc1 | -0.13 ± 0.25 um |
| CCN1CCN(c2cc3c(cc2F)c(=O)c(C(=O)O)cn3C2CC2)CC1 [Enrofloxacin] | 0.08 ± 0.12 um |
| NC(=O)c1cccc(-c2cccc(OC(=O)NC3CCCCC3)c2)c1 | -0.83 ± 0.12 um |
| CC1(C)O[C@@H]2C[C@H]3[C@@H]4CCC5=CC(=O)C=C[C@]5(C)[C@H]4[C@@H](O)C[C@]3(C)[C@]2(C(=O)CO)O1 [Desonide] | -0.15 ± 0.14 um |
| CCOC(=O)c1ccc(N2NC(=O)C(=Cc3ccc([N+](=O)[O-])o3)C2=O)cc1 | -0.5 ± 0.29 um |
| Cc1onc(-c2ccccc2Cl)c1C(=O)N[C@@H]1C(=O)N2[C@@H]1SC(C)(C)[C@@H]2C(=O)O [Cloxacillin Sodium] | -0.77 ± 0.15 um |
| O=C(O)C1=C[C@@H](O)[C@@H](O)[C@H](O)C1 [Shikimic Acid] | 0.32 ± 0.28 um |
| CC1=CC(=O)NS(=O)(=O)O1 [Acesulfame Potassium] | -0.04 ± 0.11 um |
| CC[C@]1(O)C[C@H]2CN(CCc3c([nH]c4ccccc34)[C@@](C(=O)OC)(c3cc4c(cc3OC)N(C=O)[C@H]3[C@@](O)(C(=O)OC)[C@H](OC(C)=O)[C@]5(CC)C=CCN6CC[C@]43[C@@H]65)C2)C1 [Vincristine] | -0.45 ± 0.24 um |
| CN(C)C(=O)C(CCN1CCC(O)(c2ccc(Cl)cc2)CC1)(c1ccccc1)c1ccccc1 [Loperamide HCl] | -0.21 ± 0.27 um |
| COc1cccc(Nc2c(C(N)=O)cnc3c(C)cc(S(=O)(=O)c4cccc(C(=O)N(C)C)c4)cc23)c1 | -0.24 ± 0.1 um |

In a second layout: entries from further up
O=C(O)/C=C/c1ccc(O)c(O)c1 [Caffeic Acid]
  rod outer segment shedding distance Ds: -0.12 ± 0.4 um
CCCC(CCC)C(=O)O [Divalproex Sodium]
  rod outer segment shedding distance Ds: -0.23 ± 0.15 um
